The assay deals with T1, MYC-tagged parkin, wild type, full-length (pRK5-MYC) (UniProt O60260 1-465).
T1 construct: Full-length construct; The truncation limit 220-465 fits the 465-residue human protein; also called MYC-Parkin; WT Parkin; not shown: MYC tag of vector pRK5-MYC
Briefly: co-immunoprecipitation of FLAG-tagged PARIS deletion fragments with full-length parkin (FIG. 18). As to the method:
For co-immunoprecipitation from cell cultures, SH-SY5Y cells were transfected with 2 μg of each plasmid, unless otherwise indicated.

B1: FLAG-tagged PARIS truncation, N-terminal domain of PARIS (other)
chain: MAEAVAAPISPWTMAATIQAMERKIESQAARLLSLEGRTGMAEKKLADCEKTAVEFGNQLEGKWAVLGTLLQEYGLLQRRLENVENLLRNRNFWILRLPPGSKGESPKEWGKLEDWQKELYKHVMRGNYETLVSLDYAISKPEVLSQIEQGKEPCNWRRPGPKIPDVPVDPSPGSGPPVPAPDLLMQIKQEGELQLQEQQALGVEAWAAGQPDIGEEPWGLSQLDSGAGDISTDATSGVHSNFSTTIPPTSWQTDLPPHHPSSACSDGTLKLNTAASTEDVKIVIKTEVQEEEVVATPVHPTDLEAHGTLFGPGQATRFFPS
notes: Two N-terminal truncations were made (1-322 and 1-164); not shown: N-terminal FLAG tag of vector pCMV-Tag2A
Take B1: the binding result is given as “no binding”.
